The other results are listed elsewhere or left out.
Tests used:
Test in all cases: log2 fold change, soluble protein after heating vs DMSO (PISA); higher = thermal stabilisation; K562 cells, 10 uM, 30 min; active = over 0.2 and 3.5 SD of the protein, either way, in both replicates (recomputed)
[1] = compound: CS(=O)(=O)c1ccc(-c2cnc(N)c(C(=O)Nc3ccccc3)n2)cc1
Method in brief: (§1)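 K562 cells at 2×10^6 cells/mL were treated with 10 μM compound for 30 min. Aliquots were heated for 3 min across 48°C-58°C, pooled, and extracted in PBS with 0.5% NP-40 at 4°C; soluble protein was the supernatant after 21,000xg for 90 min. Soluble protein was quantified by TMTpro 16plex LC-MS/MS with channel sums equalised, and reported as log2 fold change in thermal stability against DMSO controls, with values from duplicates.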

Protein sequences, listed by entry. Tags and fused reporters are not part of them. Lines headed by an entry give the natural chain unless they say otherwise; changes in a name come on top.
UniProt P36955: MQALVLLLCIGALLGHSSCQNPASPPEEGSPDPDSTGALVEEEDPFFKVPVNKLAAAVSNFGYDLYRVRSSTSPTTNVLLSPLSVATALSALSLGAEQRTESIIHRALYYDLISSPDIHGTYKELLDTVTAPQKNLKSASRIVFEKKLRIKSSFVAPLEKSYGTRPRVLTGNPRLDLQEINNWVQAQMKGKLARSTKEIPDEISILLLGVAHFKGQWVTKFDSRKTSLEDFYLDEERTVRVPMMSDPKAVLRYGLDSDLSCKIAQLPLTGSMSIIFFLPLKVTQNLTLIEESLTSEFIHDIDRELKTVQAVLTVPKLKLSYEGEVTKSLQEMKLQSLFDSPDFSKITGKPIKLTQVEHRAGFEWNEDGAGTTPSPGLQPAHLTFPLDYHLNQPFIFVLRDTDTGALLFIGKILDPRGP
UniProt Q9NXA8: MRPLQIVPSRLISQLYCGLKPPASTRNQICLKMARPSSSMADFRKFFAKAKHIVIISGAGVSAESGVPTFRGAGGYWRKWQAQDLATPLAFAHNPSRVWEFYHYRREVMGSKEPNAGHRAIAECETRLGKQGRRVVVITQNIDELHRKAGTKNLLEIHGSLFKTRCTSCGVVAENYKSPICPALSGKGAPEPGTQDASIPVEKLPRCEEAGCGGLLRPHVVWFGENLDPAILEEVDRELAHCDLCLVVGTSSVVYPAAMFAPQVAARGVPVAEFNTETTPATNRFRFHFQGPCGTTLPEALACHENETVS
UniProt Q9NVA2: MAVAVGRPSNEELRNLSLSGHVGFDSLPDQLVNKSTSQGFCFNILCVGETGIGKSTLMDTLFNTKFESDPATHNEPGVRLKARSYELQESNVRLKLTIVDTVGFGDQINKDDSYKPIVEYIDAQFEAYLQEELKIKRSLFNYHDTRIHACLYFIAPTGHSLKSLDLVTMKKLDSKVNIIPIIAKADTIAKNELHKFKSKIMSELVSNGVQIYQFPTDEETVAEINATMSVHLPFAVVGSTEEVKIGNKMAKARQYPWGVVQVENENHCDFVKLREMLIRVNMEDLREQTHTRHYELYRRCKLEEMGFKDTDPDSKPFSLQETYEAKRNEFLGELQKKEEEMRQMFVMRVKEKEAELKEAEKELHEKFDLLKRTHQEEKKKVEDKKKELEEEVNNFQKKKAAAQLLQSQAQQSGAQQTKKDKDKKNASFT
UniProt Q01105, whole entry, looked up: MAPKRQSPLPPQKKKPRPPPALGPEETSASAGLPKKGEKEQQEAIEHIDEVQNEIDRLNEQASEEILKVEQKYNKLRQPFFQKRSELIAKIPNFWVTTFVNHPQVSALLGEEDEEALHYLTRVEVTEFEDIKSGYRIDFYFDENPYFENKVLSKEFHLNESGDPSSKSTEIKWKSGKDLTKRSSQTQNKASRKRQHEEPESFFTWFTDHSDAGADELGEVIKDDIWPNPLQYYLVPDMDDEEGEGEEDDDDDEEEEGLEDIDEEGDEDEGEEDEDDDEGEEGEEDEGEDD
UniProt Q96ES7: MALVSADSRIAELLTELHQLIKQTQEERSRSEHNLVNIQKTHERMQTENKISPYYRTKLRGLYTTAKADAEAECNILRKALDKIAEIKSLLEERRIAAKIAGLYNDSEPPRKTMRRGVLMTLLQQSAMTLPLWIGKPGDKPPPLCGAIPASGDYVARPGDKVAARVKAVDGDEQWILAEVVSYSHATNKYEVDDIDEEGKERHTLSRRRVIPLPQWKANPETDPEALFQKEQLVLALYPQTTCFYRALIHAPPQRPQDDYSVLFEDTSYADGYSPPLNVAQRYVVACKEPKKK
UniProt P50453: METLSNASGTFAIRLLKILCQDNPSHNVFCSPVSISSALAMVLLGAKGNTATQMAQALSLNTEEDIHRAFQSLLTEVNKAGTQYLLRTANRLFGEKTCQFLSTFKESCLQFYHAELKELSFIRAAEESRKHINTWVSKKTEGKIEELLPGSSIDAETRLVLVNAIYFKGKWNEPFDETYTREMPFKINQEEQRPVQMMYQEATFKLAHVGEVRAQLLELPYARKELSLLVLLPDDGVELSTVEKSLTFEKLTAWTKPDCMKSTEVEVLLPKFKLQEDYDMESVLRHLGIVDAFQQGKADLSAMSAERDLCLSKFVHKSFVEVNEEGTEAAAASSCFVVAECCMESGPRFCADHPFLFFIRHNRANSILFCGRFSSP
UniProt A0MZ66, whole entry, looked up: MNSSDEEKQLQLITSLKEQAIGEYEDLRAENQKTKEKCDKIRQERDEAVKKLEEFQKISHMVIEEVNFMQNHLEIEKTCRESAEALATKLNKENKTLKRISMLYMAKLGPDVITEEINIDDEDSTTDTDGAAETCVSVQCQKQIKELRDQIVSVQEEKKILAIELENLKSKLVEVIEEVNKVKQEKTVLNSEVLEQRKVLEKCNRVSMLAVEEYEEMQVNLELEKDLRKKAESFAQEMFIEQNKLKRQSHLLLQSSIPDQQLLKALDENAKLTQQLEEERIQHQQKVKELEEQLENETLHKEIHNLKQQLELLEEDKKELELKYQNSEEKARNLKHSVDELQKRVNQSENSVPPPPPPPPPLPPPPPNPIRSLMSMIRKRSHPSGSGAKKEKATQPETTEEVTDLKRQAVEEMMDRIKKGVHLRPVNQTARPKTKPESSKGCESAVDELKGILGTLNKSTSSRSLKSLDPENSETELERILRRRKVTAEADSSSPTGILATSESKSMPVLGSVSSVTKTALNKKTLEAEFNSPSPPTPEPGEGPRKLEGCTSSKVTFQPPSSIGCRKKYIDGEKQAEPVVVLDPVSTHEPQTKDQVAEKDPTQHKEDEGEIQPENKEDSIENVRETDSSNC
UniProt Q8NC51: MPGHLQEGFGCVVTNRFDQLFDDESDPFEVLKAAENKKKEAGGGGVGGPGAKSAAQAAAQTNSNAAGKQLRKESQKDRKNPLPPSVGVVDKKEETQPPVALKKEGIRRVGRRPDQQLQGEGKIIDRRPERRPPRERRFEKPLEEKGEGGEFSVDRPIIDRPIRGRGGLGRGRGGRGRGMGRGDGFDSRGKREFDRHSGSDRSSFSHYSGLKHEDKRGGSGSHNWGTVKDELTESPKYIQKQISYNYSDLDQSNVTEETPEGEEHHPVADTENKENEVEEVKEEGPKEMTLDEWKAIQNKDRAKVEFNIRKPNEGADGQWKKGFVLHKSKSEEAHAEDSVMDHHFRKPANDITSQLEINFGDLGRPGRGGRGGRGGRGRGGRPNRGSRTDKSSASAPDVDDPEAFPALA
UniProt Q92599: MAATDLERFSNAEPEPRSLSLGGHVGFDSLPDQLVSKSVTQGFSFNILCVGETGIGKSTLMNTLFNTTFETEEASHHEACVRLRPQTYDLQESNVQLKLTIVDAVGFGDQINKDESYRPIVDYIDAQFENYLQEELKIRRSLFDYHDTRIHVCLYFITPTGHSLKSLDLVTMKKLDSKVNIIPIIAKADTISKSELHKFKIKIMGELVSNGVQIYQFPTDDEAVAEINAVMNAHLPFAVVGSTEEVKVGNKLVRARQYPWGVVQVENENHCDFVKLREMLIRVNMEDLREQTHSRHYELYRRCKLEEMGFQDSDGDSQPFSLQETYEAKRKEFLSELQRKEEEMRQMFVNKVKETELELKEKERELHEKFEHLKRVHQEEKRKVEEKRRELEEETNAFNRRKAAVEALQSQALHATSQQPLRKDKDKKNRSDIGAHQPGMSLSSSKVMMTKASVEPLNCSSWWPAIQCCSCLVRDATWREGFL
UniProt Q9Y371: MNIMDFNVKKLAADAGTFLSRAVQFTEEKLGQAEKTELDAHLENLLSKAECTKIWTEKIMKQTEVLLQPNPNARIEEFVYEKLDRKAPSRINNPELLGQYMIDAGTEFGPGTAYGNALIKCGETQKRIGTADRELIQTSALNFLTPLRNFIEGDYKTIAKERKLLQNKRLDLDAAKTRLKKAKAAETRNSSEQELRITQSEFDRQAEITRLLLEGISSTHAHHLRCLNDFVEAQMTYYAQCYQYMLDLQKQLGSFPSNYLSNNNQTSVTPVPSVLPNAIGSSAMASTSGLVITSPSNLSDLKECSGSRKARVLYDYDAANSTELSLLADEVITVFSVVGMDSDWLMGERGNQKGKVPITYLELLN
UniProt Q15019: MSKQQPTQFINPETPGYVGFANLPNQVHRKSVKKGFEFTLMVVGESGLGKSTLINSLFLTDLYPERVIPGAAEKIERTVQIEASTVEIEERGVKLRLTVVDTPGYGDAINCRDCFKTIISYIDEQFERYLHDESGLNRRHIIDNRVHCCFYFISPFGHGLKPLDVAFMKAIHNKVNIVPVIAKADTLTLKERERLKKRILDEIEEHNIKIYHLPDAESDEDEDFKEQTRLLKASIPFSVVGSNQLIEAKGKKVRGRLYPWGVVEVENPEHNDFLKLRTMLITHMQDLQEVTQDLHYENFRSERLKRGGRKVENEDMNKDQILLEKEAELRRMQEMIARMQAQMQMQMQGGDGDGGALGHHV
UniProt P01008, whole entry, looked up: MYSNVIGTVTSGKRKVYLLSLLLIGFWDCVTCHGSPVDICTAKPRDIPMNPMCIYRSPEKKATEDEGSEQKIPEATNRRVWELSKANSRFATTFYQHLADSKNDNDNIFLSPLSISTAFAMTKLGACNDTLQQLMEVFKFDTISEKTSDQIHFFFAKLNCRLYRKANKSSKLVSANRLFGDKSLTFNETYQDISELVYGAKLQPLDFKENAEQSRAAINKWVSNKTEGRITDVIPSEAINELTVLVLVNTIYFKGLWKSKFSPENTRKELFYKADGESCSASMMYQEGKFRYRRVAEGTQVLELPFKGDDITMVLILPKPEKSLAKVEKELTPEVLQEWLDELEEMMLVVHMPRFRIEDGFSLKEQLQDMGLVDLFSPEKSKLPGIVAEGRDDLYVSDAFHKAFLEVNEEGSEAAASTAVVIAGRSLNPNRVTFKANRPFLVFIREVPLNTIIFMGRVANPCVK
UniProt P49903: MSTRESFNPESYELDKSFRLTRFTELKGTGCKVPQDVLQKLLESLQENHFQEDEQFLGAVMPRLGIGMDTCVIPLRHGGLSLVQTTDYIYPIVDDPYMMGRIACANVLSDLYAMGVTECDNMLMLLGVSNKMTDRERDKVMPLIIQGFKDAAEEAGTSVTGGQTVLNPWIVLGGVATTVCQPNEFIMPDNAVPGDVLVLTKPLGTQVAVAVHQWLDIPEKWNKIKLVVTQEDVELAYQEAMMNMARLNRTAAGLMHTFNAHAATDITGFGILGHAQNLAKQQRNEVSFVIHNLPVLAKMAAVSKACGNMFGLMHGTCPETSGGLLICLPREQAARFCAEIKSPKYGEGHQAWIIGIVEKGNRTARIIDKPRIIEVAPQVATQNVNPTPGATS
UniProt Q9UQ13: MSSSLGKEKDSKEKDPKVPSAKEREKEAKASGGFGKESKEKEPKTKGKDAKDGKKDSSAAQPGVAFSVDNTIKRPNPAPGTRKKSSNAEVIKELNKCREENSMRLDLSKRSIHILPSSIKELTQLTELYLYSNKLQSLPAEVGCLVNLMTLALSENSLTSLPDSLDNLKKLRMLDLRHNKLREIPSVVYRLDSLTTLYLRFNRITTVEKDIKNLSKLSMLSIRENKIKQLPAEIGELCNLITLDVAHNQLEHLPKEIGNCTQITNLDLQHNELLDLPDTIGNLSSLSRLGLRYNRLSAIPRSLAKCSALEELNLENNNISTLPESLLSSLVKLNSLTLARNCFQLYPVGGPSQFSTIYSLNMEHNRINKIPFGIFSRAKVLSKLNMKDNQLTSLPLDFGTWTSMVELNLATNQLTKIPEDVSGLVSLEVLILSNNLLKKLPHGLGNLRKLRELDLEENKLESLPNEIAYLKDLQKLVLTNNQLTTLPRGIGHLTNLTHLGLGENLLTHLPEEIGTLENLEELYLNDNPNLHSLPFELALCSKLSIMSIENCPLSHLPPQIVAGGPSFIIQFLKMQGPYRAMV
UniProt O60613, whole entry, looked up: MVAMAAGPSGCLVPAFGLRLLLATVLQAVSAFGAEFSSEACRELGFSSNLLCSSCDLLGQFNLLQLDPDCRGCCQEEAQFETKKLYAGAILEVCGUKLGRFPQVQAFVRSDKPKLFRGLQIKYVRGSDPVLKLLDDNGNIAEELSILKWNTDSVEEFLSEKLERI
UniProt Q14141: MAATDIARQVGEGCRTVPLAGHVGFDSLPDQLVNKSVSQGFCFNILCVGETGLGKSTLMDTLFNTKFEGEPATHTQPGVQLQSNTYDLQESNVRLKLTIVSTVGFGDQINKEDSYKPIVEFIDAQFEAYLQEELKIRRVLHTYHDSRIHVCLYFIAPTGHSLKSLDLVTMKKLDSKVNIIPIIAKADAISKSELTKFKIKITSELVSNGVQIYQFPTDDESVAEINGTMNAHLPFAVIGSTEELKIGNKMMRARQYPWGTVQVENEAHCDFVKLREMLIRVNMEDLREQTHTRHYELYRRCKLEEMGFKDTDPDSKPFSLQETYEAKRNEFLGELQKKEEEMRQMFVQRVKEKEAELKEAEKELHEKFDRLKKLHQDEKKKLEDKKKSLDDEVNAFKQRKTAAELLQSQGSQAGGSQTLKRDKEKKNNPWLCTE

crizotinib = compound: C[C@@H](Oc1cc(-c2cnn(C3CCNCC3)c2)cnc1N)c1c(Cl)ccc(F)c1Cl [crizotinib]
Method in brief: as §1

[2] = compound: C[C@@H]1COCCN1C2=NC(=NC(=C2)C3(CC3)S(=O)(=O)C)C4=C5C=CNC5=CC=C4
Method in brief: as §1

[3] = compound: C[C@H](C1=CC=C(C=C1)C(=O)NC2=C3C=CNC3=NC=C2)N
Method in brief: as §1

duvelisib = compound: C[C@H](Nc1ncnc2nc[nH]c12)c1cc2cccc(Cl)c2c(=O)n1-c1ccccc1 [duvelisib]
Method in brief: as §1

gandotinib = compound: Cc1cc(Nc2cc(CN3CCOCC3)c3nc(C)c(Cc4ccc(Cl)cc4F)n3n2)n[nH]1 [gandotinib]
Method in brief: as §1

tozasertib = compound: Cc1cc(Nc2cc(N3CCN(C)CC3)nc(Sc3ccc(NC(=O)C4CC4)cc3)n2)n[nH]1 [tozasertib]
Method in brief: as §1

[4] = compound: Cc1cc(SCc2sc(-c3ccc(C(F)(F)F)cc3)nc2C)ccc1OCC(=O)O
Method in brief: as §1

doramapimod = compound: Cc1ccc(-n2nc(C(C)(C)C)cc2NC(=O)Nc2ccc(OCCN3CCOCC3)c3ccccc23)cc1 [doramapimod]
Method in brief: as §1

ispinesib = compound: Cc1ccc(C(=O)N(CCCN)[C@@H](c2nc3cc(Cl)ccc3c(=O)n2Cc2ccccc2)C(C)C)cc1 [ispinesib]
Method in brief: as §1

bafetinib = compound: Cc1ccc(NC(=O)c2ccc(CN3CC[C@H](N(C)C)C3)c(C(F)(F)F)c2)cc1Nc1nccc(-c2cncnc2)n1 [bafetinib]
Method in brief: as §1

[5] = compound: Cc1cccc(CC(=O)N2CCc3c2ccc(-c2cn(C)c4ncnc(N)c24)c3F)n1
Method in brief: as §1

nilotinib = compound: Cc1cn(-c2cc(NC(=O)c3ccc(C)c(Nc4nccc(-c5cccnc5)n4)c3)cc(C(F)(F)F)c2)cn1 [nilotinib]
Method in brief: as §1

[6] = compound: Cc1nc(Nc2n[nH]c3c2CN(C(=O)N[C@H](CN(C)C)c2ccccc2)C3(C)C)c2sccc2n1
Method in brief: as §1

dasatinib = compound: Cc1nc(Nc2ncc(C(=O)Nc3c(C)cccc3Cl)s2)cc(N2CCN(CCO)CC2)n1 [dasatinib]
Method in brief: as §1

[7] = compound: Cc1ncc(-c2ccnc(Nc3ccc(S(C)(=O)=O)cc3)n2)n1C(C)C
Method in brief: as §1

[8] = compound: Cn1cc(-c2ccc3c(c2)CCN3C(=O)Cc2cccc(C(F)(F)F)c2)c2c(N)ncnc21
Method in brief: as §1

[9] = compound: Cn1cc(-c2ccc3nnc(C(F)(F)c4ccc5ncccc5c4)n3n2)cn1
Method in brief: as §1

tipifarnib = compound: Cn1cncc1[C@@](N)(c1ccc(Cl)cc1)c1ccc2c(c1)c(-c1cccc(Cl)c1)cc(=O)n2C [tipifarnib]
Method in brief: as §1

mubritinib = compound: FC(F)(F)c1ccc(/C=C/c2nc(COc3ccc(CCCCn4ccnn4)cc3)co2)cc1 [mubritinib]
Method in brief: as §1

Measured: log2 fold change

SERPINF1 (UniProt P36955)
inactive: [1] -0.008 | crizotinib 0.09 | [2] -0.161 | [3] 0.058 | duvelisib -0.024 | gandotinib 0.09 | tozasertib -0.005 | [4] 0.013 | doramapimod 0.047 | ispinesib 0.148 | bafetinib -0.083 | [5] -0.02 | nilotinib 0.065 | [6] -0.048 | dasatinib 0.074 | [7] 0.102 | [8] 0.118 | [9] -0.086 | tipifarnib 0.052 | mubritinib -0.11

SIRT5 (UniProt Q9NXA8)
inactive: [1] 0.025 | crizotinib 0.193 | [2] 0.273 | [3] -0.059 | duvelisib 0.054 | gandotinib 0.024 | tozasertib 0.032 | [4] 0.062 | doramapimod -0.089 | ispinesib -0.04 | bafetinib 0.074 | [5] 0.027 | nilotinib 0.005 | [6] -0.026 | dasatinib 0.012 | [7] 0.016 | [8] -0.027 | [9] -0.158 | tipifarnib -0.027 | mubritinib 0.2

SEPTIN11 isoform 2 (UniProt Q9NVA2)
inactive: [1] 0.024 | crizotinib 0.034 | [2] 0.01 | [3] -0.024 | duvelisib 0.022 | gandotinib 0.006 | tozasertib -0.051 | [4] -0.089 | doramapimod -0.032 | ispinesib 0.022 | bafetinib -0.063 | [5] -0.048 | nilotinib 0.013 | [6] -0.015 | dasatinib 0.028 | [7] -0.014 | [8] 0.02 | [9] 0.004 | tipifarnib -0.026 | mubritinib 0.045

SET isoform 2 (UniProt Q01105)
inactive: [1] -0.008 | crizotinib -0.003 | [2] 0.012 | [3] -0.076 | duvelisib -0.069 | gandotinib 0.034 | tozasertib -0.014 | [4] 0.015 | doramapimod -0.031 | ispinesib -0.047 | bafetinib -0.024 | [5] -0.036 | nilotinib 0.002 | [6] 0.001 | dasatinib -0.012 | [7] 0.004 | [8] 0.022 | [9] -0.048 | tipifarnib 0.019 | mubritinib 0.049

SGF29 (UniProt Q96ES7)
inactive: [1] -0.006 | crizotinib -0.042 | [2] -0.013 | [3] -0.018 | duvelisib 0.025 | gandotinib 0.011 | tozasertib -0.094 | [4] -0.014 | doramapimod 0.005 | ispinesib -0.011 | bafetinib -0.038 | [5] -0.065 | nilotinib 0.025 | [6] -0.015 | dasatinib -0.071 | [7] -0.07 | [8] 0.022 | [9] -0.11 | tipifarnib -0.006 | mubritinib 0.024

SERPINB9 (UniProt P50453)
inactive: [1] -0.01 | crizotinib 0.012 | [2] 0.055 | [3] -0.088 | duvelisib 0.018 | gandotinib 0.063 | tozasertib -0.011 | [4] -0.017 | doramapimod -0.034 | ispinesib 0.039 | bafetinib -0.02 | [5] 0.004 | nilotinib 0.037 | [6] -0.009 | dasatinib 0.014 | [7] 0.013 | [8] 0.043 | [9] 0.012 | tipifarnib -0.043 | mubritinib 0.012

SHTN1 isoform 3 (UniProt A0MZ66)
inactive: [1] 0.036 | crizotinib 0.009 | [2] -0.004 | [3] 0.053 | duvelisib 0.076 | gandotinib 0.02 | tozasertib 0.073 | [4] -0.008 | doramapimod 0.045 | ispinesib -0.04 | bafetinib -0.029 | [5] -0.004 | nilotinib -0.037 | [6] -0.036 | dasatinib 0.04 | [7] 0.033 | [8] -0.064 | [9] 0.03 | tipifarnib -0.01 | mubritinib 0

SERBP1 (UniProt Q8NC51)
inactive: [1] -0.052 | crizotinib 0.018 | [2] -0.198 | [3] 0.169 | duvelisib -0.038 | gandotinib -0.038 | tozasertib -0.051 | [4] -0.012 | doramapimod 0.059 | ispinesib -0.155 | bafetinib 0.039 | [5] -0.157 | nilotinib 0.021 | [6] 0.016 | dasatinib 0.112 | [7] 0.002 | [8] -0.047 | [9] -0.039 | tipifarnib 0.083 | mubritinib -0.046

SEPTIN8 (UniProt Q92599)
inactive: [1] -0.03 | crizotinib 0.062 | [2] 0.078 | [3] -0.049 | duvelisib 0.058 | gandotinib -0.024 | tozasertib -0.028 | [4] -0.003 | doramapimod -0.015 | ispinesib 0.05 | bafetinib -0.009 | [5] -0.022 | nilotinib -0.009 | [6] 0.019 | dasatinib -0.001 | [7] 0.001 | [8] 0.032 | [9] 0.024 | tipifarnib -0.026 | mubritinib 0.027

SH3GLB1 isoform 2 (UniProt Q9Y371)
inactive: [1] 0.018 | crizotinib -0.222 | [2] -0.023 | [3] 0.043 | duvelisib -0.07 | gandotinib -0.147 | tozasertib -0.049 | [4] 0.176 | doramapimod 0.008 | ispinesib -0.307 | bafetinib -0.068 | [5] 0.095 | nilotinib 0.02 | [6] -0.191 | dasatinib -0.16 | [7] -0.068 | [8] 0.028 | [9] 0 | tipifarnib -0.082 | mubritinib 0.062

SEPTIN2 isoform 2 (UniProt Q15019)
inactive: [1] 0.041 | crizotinib 0.051 | [2] 0.056 | [3] -0.026 | duvelisib 0.01 | gandotinib 0.018 | tozasertib -0.018 | [4] -0.027 | doramapimod 0.009 | ispinesib 0.032 | bafetinib -0.017 | [5] -0.034 | nilotinib 0.007 | [6] 0.017 | dasatinib 0.027 | [7] -0.014 | [8] 0.019 | [9] 0.003 | tipifarnib 0.028 | mubritinib 0.042

2 successive entries out of the list so far, for reference:
SIRT5 (UniProt Q9NXA8)
inactive: [1] 0.025 | crizotinib 0.193 | [2] 0.273 | [3] -0.059 | duvelisib 0.054 | gandotinib 0.024 | tozasertib 0.032 | [4] 0.062 | doramapimod -0.089 | ispinesib -0.04 | bafetinib 0.074 | [5] 0.027 | nilotinib 0.005 | [6] -0.026 | dasatinib 0.012 | [7] 0.016 | [8] -0.027 | [9] -0.158 | tipifarnib -0.027 | mubritinib 0.2

SEPTIN11 isoform 2 (UniProt Q9NVA2)
inactive: [1] 0.024 | crizotinib 0.034 | [2] 0.01 | [3] -0.024 | duvelisib 0.022 | gandotinib 0.006 | tozasertib -0.051 | [4] -0.089 | doramapimod -0.032 | ispinesib 0.022 | bafetinib -0.063 | [5] -0.048 | nilotinib 0.013 | [6] -0.015 | dasatinib 0.028 | [7] -0.014 | [8] 0.02 | [9] 0.004 | tipifarnib -0.026 | mubritinib 0.045

(continued)

SERPINC1 (UniProt P01008)
inactive: [1] 0.025 | crizotinib 0.002 | [2] 0.155 | [3] 0.289 | duvelisib -0.267 | gandotinib 0.045 | tozasertib -0.161 | [4] -0.094 | doramapimod 0.104 | ispinesib -0.076 | bafetinib -0.035 | [5] -0.065 | nilotinib 0.02 | [6] 0.072 | dasatinib 0.063 | [7] 0.293 | [8] 0.175 | [9] -0.034 | tipifarnib 0 | mubritinib -0.321

SEPHS1 (UniProt P49903)
inactive: [1] -0.025 | crizotinib -0.004 | [2] 0.039 | [3] -0.039 | duvelisib 0.055 | gandotinib 0.038 | tozasertib -0.007 | [4] -0.009 | doramapimod 0 | ispinesib 0.039 | bafetinib -0.01 | [5] -0.008 | nilotinib 0.031 | [6] 0.016 | dasatinib -0.005 | [7] 0.006 | [8] 0.054 | [9] 0.018 | tipifarnib -0.052 | mubritinib 0.014

SHOC2 (UniProt Q9UQ13)
inactive: [1] 0.078 | crizotinib 0.017 | [2] 0.018 | [3] -0.002 | duvelisib 0.013 | gandotinib 0 | tozasertib -0.034 | [4] 0.005 | doramapimod 0.012 | ispinesib -0.008 | bafetinib -0.042 | [5] -0.01 | nilotinib -0.073 | [6] 0.016 | dasatinib -0.044 | [7] -0.028 | [8] 0.121 | [9] -0.064 | tipifarnib -0.008 | mubritinib 0.069

SELENOF (UniProt O60613)
inactive: [1] 0.054 | crizotinib 0.062 | [2] 0.023 | [3] 0.043 | duvelisib 0.027 | gandotinib 0.024 | tozasertib -0.005 | [4] -0.018 | doramapimod 0.001 | ispinesib 0.01 | bafetinib 0.002 | [5] -0.034 | nilotinib 0.031 | [6] 0.049 | dasatinib 0.013 | [7] -0.052 | [8] -0.004 | [9] 0 | tipifarnib 0.022 | mubritinib -0.017

SEPTIN6 (UniProt Q14141)
inactive: [1] 0.018 | crizotinib 0.013 | [2] 0.018 | [3] -0.028 | duvelisib -0.001 | gandotinib -0.085 | tozasertib -0.011 | [4] -0.008 | doramapimod -0.008 | ispinesib 0.016 | bafetinib -0.02 | [5] 0.013 | nilotinib -0.001 | [6] 0 | dasatinib 0.027 | [7] 0.019 | [8] 0.064 | [9] -0.011 | tipifarnib -0.006 | mubritinib -0.008

— the supplement of paper PMC10849652
